According to PubChem BioAssay AID529 (NMMLSC, 2006):
Hit rate of the full screen: of about 24,000 compounds, about 50 (0.2%) were called active. The shares of active, inactive and inconclusive entries below differ from those in the screen.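 Rule for the calls: active = inhibition above 50%; inconclusive = compound itself fluorescent, judged against control cell fluorescence; inactive = the rest.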

Chains of the proteins cited; added tags and fusions are not shown.
UniProt P13612, whole entry, looked up: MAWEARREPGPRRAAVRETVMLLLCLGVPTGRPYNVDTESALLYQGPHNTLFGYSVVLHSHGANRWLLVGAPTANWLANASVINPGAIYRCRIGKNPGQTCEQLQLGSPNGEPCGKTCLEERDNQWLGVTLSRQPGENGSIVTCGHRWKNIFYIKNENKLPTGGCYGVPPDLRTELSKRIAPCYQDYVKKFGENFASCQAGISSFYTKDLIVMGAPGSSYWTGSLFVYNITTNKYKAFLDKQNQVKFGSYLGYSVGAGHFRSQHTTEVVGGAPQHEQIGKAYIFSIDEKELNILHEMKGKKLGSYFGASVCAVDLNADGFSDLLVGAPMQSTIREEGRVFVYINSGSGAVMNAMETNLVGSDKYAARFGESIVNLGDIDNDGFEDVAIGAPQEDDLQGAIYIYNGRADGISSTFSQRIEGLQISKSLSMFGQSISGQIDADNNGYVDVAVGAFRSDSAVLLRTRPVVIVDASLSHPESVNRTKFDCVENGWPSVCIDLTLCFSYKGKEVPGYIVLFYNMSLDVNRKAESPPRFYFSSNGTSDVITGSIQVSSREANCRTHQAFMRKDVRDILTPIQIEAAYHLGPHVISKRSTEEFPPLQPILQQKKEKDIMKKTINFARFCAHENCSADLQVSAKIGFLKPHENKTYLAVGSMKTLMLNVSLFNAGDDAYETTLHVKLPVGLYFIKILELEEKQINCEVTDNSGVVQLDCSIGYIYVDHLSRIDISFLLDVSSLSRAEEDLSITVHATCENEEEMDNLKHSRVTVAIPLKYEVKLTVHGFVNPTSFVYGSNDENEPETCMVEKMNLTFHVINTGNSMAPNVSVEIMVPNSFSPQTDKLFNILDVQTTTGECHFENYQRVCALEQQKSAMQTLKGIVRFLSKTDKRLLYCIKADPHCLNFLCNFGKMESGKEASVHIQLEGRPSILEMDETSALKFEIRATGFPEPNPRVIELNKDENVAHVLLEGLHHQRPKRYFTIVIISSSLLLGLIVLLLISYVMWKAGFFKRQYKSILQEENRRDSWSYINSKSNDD

Target: Integrin alpha-4 (Homo sapiens) (UniProt P13612)
Test: blockers of LDV-FITC ligand binding on VLA-4 – Jurkat cells, Mn2+ activated, primary screen (AID 529);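 for inhibition: 0% = Mn2+ stimulated cells lacking compound and 100% = ligand binding without Mn2+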
Details: LDV-FITC binding with Mn2+, flow cytometry; active compounds read high, screened at 10 µM (by protocol), 100% = Mn2+-driven binding gain fully reversed unless noted

Row | Structure (SMILES) | inhibition
1 | Cc1ccc(S(=O)(=O)NCCn2c(C)cc3ccccc32)cc1 | inconclusive
2 | Cc1ccc2oc(=O)c3cnn(CC(=O)NCCc4ccsc4)c3c2c1 | inconclusive
3 | CCOCCCn1c(=S)[nH]c2cc(C(=O)NCCN(CC)CC)ccc2c1=O | inconclusive
4 | Cc1nc(S(=O)(=O)N(C)c2ccccc2)c(C#N)c(C)c1Cl | inconclusive
5 | COc1ccc(C2CCCN2C(=O)Nc2ccc(F)cc2)cc1OC (centres undefined) | inactive: -11%
6 | Cc1ccc(-c2nc(CSCC(=O)N3CCN(c4ccccn4)CC3)c(C)o2)cc1 | inconclusive
7 | O=C1c2oc3ccccc3c(=O)c2C(c2cccc(O)c2)N1CCCN1CCOCC1 (centres undefined) | inconclusive
8 | CCOC(=O)CCN(Cc1cccs1)S(=O)(=O)c1ccc(F)cc1 | inconclusive
9 | Cc1cc(N2CCN(C3CCCCC3)CC2)nc2cccc(O)c12 | inconclusive
10 | O=C(Nc1cccc(-c2nc3cccnc3s2)c1)c1ccco1 | inconclusive
11 | CCOC(=O)c1ccc(CNC(=O)Cn2nnc(-c3ccc(C)cc3)n2)o1 | inactive: 1%
12 | O=C(NCSc1ccncn1)c1ccccc1 | inconclusive
13 | Cc1nn(C(C)C(=O)O)c(=O)c2c1sc1ccccc12 (centres undefined) | inconclusive
14 | CSc1nc(N)nc(SCC(=O)c2ccc(C)cc2)c1C#N | inconclusive
15 | N=c1n(CCN2CCCCC2)c2ccccc2n1CC(O)COc1ccccc1 (centres undefined) | inactive: -12%
16 | CCOC(=O)c1ccc(-c2nnc(-c3ccc(Cl)cc3Cl)o2)cc1 | inconclusive
17 | CN(C)CCCC1(c2ccc(F)cc2)OCc2cc(C#N)ccc21 (centres undefined) | inactive: -31%
18 | COCc1cc(C)nc(SCC(=O)Nc2cccc(C)c2)c1C#N | inconclusive
19 | CC(C)(C)n1ncc2c(=O)n(Cc3c(F)cccc3Cl)cnc21 | inconclusive
20 | CCCCc1nc2c(=O)[nH]c3ccccc3c2o1 | inconclusive
21 | Cc1cc(N(CN2CCCC2=O)C(=O)c2ccc(F)cc2)no1 | inconclusive
22 | O=C(NCc1cccnc1)C1c2ccccc2C(=O)N1C1CCCCCCC1 (centres undefined) | inactive: 20%
23 | Cc1cc(NC(=O)CSc2nnc(C3CC3)n2C)no1 | inconclusive
24 | CCCNC(=O)Cn1cccc1C(=O)c1ccccc1 | inconclusive
25 | Nc1ccc2c(c1)CCC2=O | inconclusive

Row | Structure (SMILES) | inhibition
26 | COc1ccccc1N=c1oc2cc(O)ccc2cc1C(N)=O | inconclusive
27 | O=C(CSc1ncnc2c1oc1ccccc12)OCc1ccccc1 | inconclusive
28 | CN1CCCN(C(=O)c2cc(=O)[nH]c3ccccc23)c2nc3ccccc3nc21 | inactive: -12%
29 | Cc1cc(C)nc(SCc2nnc(SCC(=O)Nc3ncc(C)s3)n2Cc2ccco2)n1 | inconclusive
30 | COCCCNC(=O)CSC1=Nc2ccccc2C2=NC(Cc3c[nH]c4ccccc34)C(=O)N12 (centres undefined) | inconclusive
31 | CSc1ccccc1NS(=O)(=O)c1ccccc1 | inactive: -21.5%
32 | CCOCCCNC(=O)CCCn1nc(C)n2c(cc3sccc32)c1=O | inconclusive
33 | CCCN(CCC)CCCNC(=O)c1cc2cc3ccc(OC)cc3nc2o1 | inconclusive
34 | CCCn1c(CNc2ccc(Br)cc2)nc2ccccc21 | inactive: 13%
35 | O=C(CCC1N=C2c3ccccc3N=C(SCc3ccc(Cl)cc3)N2C1=O)NCc1ccco1 (centres undefined) | inconclusive
36 | Cc1cc(N2C(=O)C(O)=C(C(=O)c3ccc(C)o3)C2c2cccs2)no1 (centres undefined) | inactive: -21%
37 | CCn1c(=O)cc(OCC(=O)Nc2ccccc2N2CCN(C)CC2)c2ccccc21 | inconclusive
38 | CCc1ccc(NC(=O)CSc2nc3ccccc3c(=O)n2CCN2CCOCC2)cc1 | inconclusive
39 | O=C(OCc1nnc(-c2ccccc2)o1)c1ccc(S(=O)(=O)NCc2ccco2)cc1 | inconclusive
40 | Cc1cc(C)c(S(=O)(=O)N2CCN(CCO)CC2)c(C)c1 | inconclusive
41 | CCC(C)NC(=O)C1CCN(S(=O)(=O)CC)CC1 (centres undefined) | inconclusive
42 | COC(=O)c1ccc(NC(=O)c2sc3nc(-c4ccccc4)cn3c2C)cc1 | inconclusive
43 | CCOC(=O)c1c(NC(=O)c2cc(C3CC3)on2)sc2c1CCCC2 | inactive: -5%
44 | COc1ccc(-c2noc(-c3cccc(OC)c3OC)n2)cc1OC | inconclusive
45 | O=C(CN1C(=O)c2ccccc2C1=O)NCC1COc2ccccc2O1 (centres undefined) | inconclusive
46 | CCN(CC(=O)Nc1ccc(S(N)(=O)=O)cc1)S(=O)(=O)c1cc(C)ccc1OC | inactive: -8%
47 | O=C(NCCc1ccccc1)C1CCN(S(=O)(=O)c2cccc3nonc23)CC1 | inconclusive
48 | Cc1cccc(C(=O)N2CCC(n3nnc4cc(F)ccc43)CC2)c1 | inactive: -16.5%
49 | Cc1noc(/C=C/c2ccco2)c1S(=O)(=O)N1CCC(C(=O)N2CCc3ccccc3C2)CC1 | inactive: 12%
50 | Cc1ccc(-n2nc3c(c2NC(=O)c2ccc4c(c2)OCO4)CSC3)c(C)c1 | inactive: 13% [active compounds read high, 100% = Mn2+-driven binding gain fully reversed, screened at 10 µM (by protocol)]

Row | Structure (SMILES) | inhibition
51 | Oc1c(Cl)cc(Cl)cc1Sc1cc(Cl)cc(Cl)c1O | inconclusive
52 | Cc1ccc(O)c(C(=O)c2cc(C#N)c(=O)n(CC3CCCO3)c2)c1 (centres undefined) | inactive: -14%
53 | O=C(CN1CCN(CC(=O)c2ccc(F)cc2)CC1)Nc1ccccc1Cl | inconclusive
54 | Cc1cc(C)n(-c2nc3ccccc3nc2Nc2ccc(CC(=O)O)cc2)n1 | inconclusive
55 | c1ccc(CCn2nnnc2C(c2cccs2)N2CCOCC2)cc1 (centres undefined) | inconclusive
56 | CCOC(=O)c1[nH]c(C)c(C(=O)Nc2ccc(C)c(F)c2)c1C | inconclusive
57 | COc1cccc(C2C=C(c3ccc(Br)s3)Nc3ncnn32)c1OC (centres undefined) | inconclusive
58 | CCOc1ccc(Br)cc1C1NC(=O)c2c(sc3c2CCN(C)C3)N1 (centres undefined) | inconclusive
59 | O=C(C1CCN(c2ncnc3c2sc2cccc(F)c23)CC1)N1CCOCC1 | inconclusive
60 | CCOC(=O)N1CCC(NC(=O)c2cc3cc4cc(OC)ccc4nc3o2)CC1 | inconclusive
61 | CCN(CC)CCCNC(=O)CC1Oc2ccc(C)cc2NC1=O (centres undefined) | inconclusive
62 | Cn1c(=O)[nH]c(=O)c2c1nc(CN1CCN(c3ccccc3F)CC1)n2CCCc1ccccc1 | inconclusive
63 | O=C(NC1(C(F)(F)F)C(=O)Nc2c1c(=O)[nH]c(=O)n2Cc1ccco1)C1CC1 (centres undefined) | inactive: 0%
64 | COc1cc(NC(=O)C2CCCN(S(=O)(=O)c3cccc4nsnc34)C2)cc(OC)c1 (centres undefined) | inconclusive
65 | CCOc1ccccc1Nc1cc(C)nc2nc(C)nn12 | inconclusive
66 | COc1cc(NS(=O)(=O)N2CCCC2)cc(OC)c1OC | inconclusive
67 | O=C(Nc1ccc(-n2nncc2-c2ccco2)cc1)c1cc2ccccc2oc1=O | inconclusive
68 | O=C1c2ccccc2C(=O)N1Cc1nc2ccccc2c(=O)n1CCN1CCOCC1 | inactive: 8.5%
69 | CCOC(=O)c1sc(NC(=O)CSc2n[nH]c(-c3ccccc3)n2)c(C#N)c1C | inconclusive
70 | CC(=O)c1nc2ccccc2n1S(=O)(=O)c1ccc(C)cc1 | inconclusive
71 | Cc1cc(C(=O)CSc2nnc(-c3ccco3)o2)c(C)n1CC1COc2ccccc2O1 (centres undefined) | inactive: -5%
72 | COC(=O)c1c(C)[nH]c(C)c1-c1ccccc1Cl | inconclusive
73 | O=C(Nc1ccc2oc(-c3ccccc3F)nc2c1)c1ccc2c(c1)OCCO2 | inconclusive
74 | c1nc(N2CCC3(CC2)OCCO3)c2[nH]cnc2n1 | inconclusive
75 | O=C(Nc1ccc(F)c(Cl)c1)c1ccc2c(=O)n3c(nc2c1)CCCCC3 | inconclusive

Row | Structure (SMILES) | inhibition
76 | O=C(COc1ccccc1)NCCn1ccc2ccccc21 | inconclusive
77 | COC(=O)CN1C(=O)COc2ccc(Cl)cc21 | inconclusive
78 | Cc1nc2c(c(C)nn2-c2ccccc2)c(C)c1Cl | inconclusive
79 | Cc1ccc2cc3cc(C(=O)NCc4ccc5c(c4)OCO5)oc3nc2c1 | inconclusive
80 | CCOC(=O)Cc1ccc(NS(=O)(=O)c2ccc(SC)cc2)cc1 | inconclusive
81 | COC(=O)c1ccccc1S(=O)(=O)N(CCCO)Cc1cc2c(C)ccc(C)c2[nH]c1=O | inconclusive
82 | CCSc1nnc(NC(=O)CSc2nc3c(c(=O)n2-c2ccccc2OC)SCC3)s1 | inconclusive
83 | Cc1ccc(S(=O)(=O)Nc2cc(C(=O)NCCN3CCCC3)ccc2N2CCCCC2)cc1 | inactive: 3%
84 | CN(C)c1cc(O)c(C(=S)Nc2ccccc2)c(N(C)C)c1 | inconclusive
85 | COCCCn1c(=S)[nH]c2ncccc2c1=O | inconclusive
86 | Cc1cc2oc3c(c(=O)c2cc1C)C(c1ccc(C(C)C)cc1)N(CCCN1CCOCC1)C3=O (centres undefined) | inactive: 6%
87 | Cc1cc(C)n(-c2nc3ccccc3nc2N2CCOCC2)n1 | inconclusive
88 | c1ccc(CNc2ccc3c(c2)ncn3C2CCCCC2)nc1 | inactive: 8.5%
89 | O=c1c2ccccc2[nH]c(=S)n1C1CCCCC1 | inconclusive
90 | CN1C(=O)CS(=O)c2ccc(C(=O)NCCC3=CCCCC3)cc21 (centres undefined) | inconclusive
91 | Cc1ccc(S(=O)(=O)c2nc(-c3cccs3)oc2SCC(N)=O)cc1 | inconclusive
92 | CCNC(=O)c1c(C)[nH]c(C(=O)OCC)c1C | inconclusive
93 | O=C(O)CCC(=O)N1CCc2cc(S(=O)(=O)N3CC=C(c4ccccc4)CC3)ccc21 | inconclusive
94 | COc1ccc(CNC(=O)C2CCCN(S(=O)(=O)c3cnc[nH]3)C2)cc1 (centres undefined) | inconclusive
95 | COc1ccc(C)cc1NC(=O)C1CCCN(S(=O)(=O)c2c(C)noc2/C=C/N(C)C)C1 (centres undefined) | inconclusive
96 | CCCSc1nnc(Cn2c(=O)sc3ccccc32)n1C | inconclusive
97 | COc1ccc2nc3oc(C(=O)N4CCN(c5cccc(C(F)(F)F)c5)CC4)cc3cc2c1 | inconclusive
98 | O=C(Cn1cc2c(n1)CCCC2)NCCCN1CCN(Cc2ccccc2)CC1 | inconclusive
99 | O=C(C1CCN(S(=O)(=O)c2cccc3cccnc23)CC1)N1CCN(C2CCCC2)CC1 | inconclusive

As entered above:
inhibition, `CCc1ccc(NC(=O)CSc2nc3ccccc3c(=O)n2CCN2CCOCC2)cc1` is entered as inconclusive
inhibition, `O=C(CCC1N=C2c3ccccc3N=C(SCc3ccc(Cl)cc3)N2C1=O)NCc1ccco1` (centres undefined) is entered as inconclusive
inhibition, `CCCN(CCC)CCCNC(=O)c1cc2cc3ccc(OC)cc3nc2o1` is entered as inconclusive
inhibition, `CCOC(=O)c1sc(NC(=O)CSc2n[nH]c(-c3ccccc3)n2)c(C#N)c1C` is entered as inconclusive
inhibition, `Cc1cc(C)nc(SCc2nnc(SCC(=O)Nc3ncc(C)s3)n2Cc2ccco2)n1` is entered as inconclusive
inhibition, `Cc1cc(C)n(-c2nc3ccccc3nc2Nc2ccc(CC(=O)O)cc2)n1` is entered as inconclusive
inhibition, `O=C(CN1C(=O)c2ccccc2C1=O)NCC1COc2ccccc2O1` (centres undefined) is entered as inconclusive
